{
  "source": "PubChem BioAssay AID2685",
  "about": "(National Center for Advancing Translational Sciences (NCATS), 2010)",
  "assay": "qHTS Assay for Lipid Storage Modulators in Drosophila S3 Cells;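 as to cell number change: cells counted by Cell Tracker Red CMTPX staining in the red channel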",
  "conditions": "BODIPY lipid droplet fluorescence, 18-24 h; for cell number change: measured here: cell count max response, cells fed with added oleic acid",
  "in_short": "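Laser-scanning cytometry quantifies lipid droplet accumulation (500–530 nm total intensity; droplet/cell object ratio) in oleic acid-fed (400 uM added) Drosophila S3 cells treated with a concentration series. 20 uM Triacsin C defined 100% inhibition.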",
  "key": {"[1]": {"conditions": "measured here: lipid fluorescence (Fed channel) AC50, cells fed with added oleic acid"}, "[2]": {"conditions": "measured here: cell number channel AC50, cells fed with added oleic acid"}},
  "note": "Some of the results follow. These are further read-outs of the screen, such as a control signal, another cell line or another target. No call is given for them. The list favours compounds with an active or inconclusive main result. The note in brackets gives the kind of curve behind each potency; many fits are weak.",
  "data": [
    {"smiles": "O=C(Cc1c(F)cccc1Cl)N1CCN(C(=O)c2ccco2)CC1", "values": [
      {"measurement": "cell number change", "result": 3.38, "unit": "%"},
      {"measurement": "AC50", "setting": "[1]", "result": "0.082 µM [falling, full curve, poor fit]"}
    ]},
    {"smiles": "COc1cc(N2C(=O)NC3CC2(C)Oc2ccccc23)cc(OC)c1OC", "note": "(stereo not given)", "values": [
      {"measurement": "cell number change", "result": 111, "unit": "%"},
      {"measurement": "AC50", "setting": "[2]", "result": "29.1 µM [rising, single point]"},
      {"measurement": "AC50", "setting": "[1]", "result": "29.1 µM [rising, single point]"}
    ]},
    {"smiles": "Cc1nc2ccc(Nc3ccncc3)cc2s1", "values": [
      {"measurement": "cell number change", "result": -58.7, "unit": "%"}
    ]},
    {"smiles": "O=Cc1ccc(-n2cccn2)cc1", "values": [
      {"measurement": "cell number change", "result": -2.54, "unit": "%"},
      {"measurement": "AC50", "setting": "[2]", "result": "2.59 µM [rising, partial curve, poor fit]"},
      {"measurement": "AC50", "setting": "[1]", "result": "1.84 µM [rising, partial curve]"}
    ]},
    {"smiles": "COc1cccc(NC(=O)c2cccnn2)c1", "values": [
      {"measurement": "cell number change", "result": -0.692, "unit": "%"},
      {"measurement": "AC50", "setting": "[2]", "result": "0.651 µM [falling, single point]"}
    ]},
    {"smiles": "O=C(Nc1ccc(S(=O)(=O)NCC2CCCO2)cc1)c1ccc(F)cc1", "note": "(stereo not given)", "values": [
      {"measurement": "cell number change", "result": -35.5, "unit": "%"},
      {"measurement": "AC50", "setting": "[2]", "result": "4.61 µM [falling, full curve, poor fit]"},
      {"measurement": "AC50", "setting": "[1]", "result": "6.31 µM [rising, partial curve, poor fit]"}
    ]},
    {"smiles": "CC(C(=O)NCc1ccccc1Cl)N1C(=O)c2ccccc2C1=O", "note": "(stereo not given)", "values": [
      {"measurement": "cell number change", "result": 3.85, "unit": "%"}
    ]},
    {"smiles": "COc1ccc(N(CC(=O)NCCSCc2ccccc2Cl)S(C)(=O)=O)cc1Cl", "values": [
      {"measurement": "cell number change", "result": -34.1, "unit": "%"},
      {"measurement": "AC50", "setting": "[2]", "result": "6.51 µM [falling, partial curve]"}
    ]},
    {"smiles": "O=c1cnnc(SCCc2ccccc2)[nH]1", "values": [
      {"measurement": "cell number change", "result": 38.2, "unit": "%"},
      {"measurement": "AC50", "setting": "[2]", "result": "5.17 µM [rising, partial curve]"}
    ]},
    {"smiles": "c1ccc(-c2nnc(OCC3CCCO3)c3ccccc23)cc1", "note": "(stereo not given)", "values": [
      {"measurement": "cell number change", "result": 18.1, "unit": "%"},
      {"measurement": "AC50", "setting": "[1]", "result": "7.94 µM [rising, partial curve]"}
    ]},
    {"smiles": "CC(NC(=O)c1cc2c(s1)CS(=O)(=O)C2)c1ccccc1", "note": "(stereo not given)", "values": [
      {"measurement": "cell number change", "result": -3.54, "unit": "%"},
      {"measurement": "AC50", "setting": "[1]", "result": "6.51 µM [falling, single point]"}
    ]},
    {"smiles": "Cc1nn(-c2cccc([N+](=O)[O-])c2)c(N)c1-c1ccccc1", "values": [
      {"measurement": "cell number change", "result": -12.1, "unit": "%"},
      {"measurement": "AC50", "setting": "[1]", "result": "7.31 µM [falling, partial curve, poor fit]"}
    ]},
    {"smiles": "CC1CCCN(CCCNC(=O)CN2C(=O)CSc3ccc(S(=O)(=O)N4CCOCC4)cc32)C1", "note": "(stereo not given)", "values": [
      {"measurement": "cell number change", "result": 18.7, "unit": "%"}
    ]},
    {"smiles": "CCOC(=O)c1[nH]c(C)c(C(=O)OCC(=O)NC(C)c2ccc(F)cc2)c1C", "note": "(stereo not given)", "values": [
      {"measurement": "cell number change", "result": 2.3, "unit": "%"},
      {"measurement": "AC50", "setting": "[2]", "result": "6.51 µM [rising, single point]"}
    ]},
    {"smiles": "CCC(C)NC(=O)C1CCN(S(=O)(=O)c2cccnc2)CC1", "note": "(stereo not given)", "values": [
      {"measurement": "cell number change", "result": 41, "unit": "%"},
      {"measurement": "AC50", "setting": "[2]", "result": "0.326 µM [rising, full curve]"},
      {"measurement": "AC50", "setting": "[1]", "result": "1.3 µM [rising, partial curve, poor fit]"}
    ]},
    {"smiles": "CCCn1nnc(NC(=O)c2ccc(Br)cc2)n1", "values": [
      {"measurement": "cell number change", "result": -23.8, "unit": "%"}
    ]},
    {"smiles": "CN(Cc1ccccc1)Cc1nc2c(c(=O)n(C)c(=O)n2C)n1Cc1ccc(F)cc1", "values": [
      {"measurement": "cell number change", "result": 19.4, "unit": "%"},
      {"measurement": "AC50", "setting": "[2]", "result": "0.731 µM [rising, full curve, poor fit]"},
      {"measurement": "AC50", "setting": "[1]", "result": "3.26 µM [rising, partial curve]"}
    ]}
  ]
}
